No constants are given. Whether binding was seen depends on the method and setting. In cells and extracts the contact can be indirect. Binding can be weak; no strength is given.
Target: m54.5p, C-terminally V5-tagged (m54.5p-V5) (murine cytomegalovirus (MCMV))
Assay: co-IP; V5 Co-IP (V5-Trap magnetic agarose beads) from lysates of m54.5p-V5-3T3 cells, with m54.5p-FLAG-3T3 cells as control; MCMV-infected or uninfected; immunoblot for endogenous partners

| Binder | binding |
| --- | --- |
| PP6R3 (protein, UniProt Q922D4 1-844) MFWKFDLHSSSHIDTLLEREDVTLKELMDEEDVLQECKAQNRKLIEFLLKAECLEDLVSFIIEEPPQDMDEKIRYKYPNISCELLTSDVSQMNDRLGEDESLLMKLYSFLLNESPLNPLLASFFSKVLSILISRKPEQIVDFLKKKRDFVDLIIKHIGTSAIMDLLLRLLTCIEPPQPRQDVLNWLNEERIIQRLVEIVHPSQEEDRHSNASQSLCEIVRLSRDQMLQVQNSTEPDPLLATLEKQEIIEQLLSNIFHKEKNESAIVSAIQILLTLLETRRPTFEGHIEICPPGMSHSACSVNKSVLEAIRGRLGSFHELLLEPPKKSVMKTTWGILDPPVGNTRLNVIRLISSLLQTNTSSINGDLMELNSIGVILDMFFKYTWNNFLHTQVEICIALILASPFENAENGTITDQDSTGDNLLLKHLFQKCQLIERILEAWDTNEKKQAEGGRRHGYMGHLTRIANCIVHSTDKGPNSALVQQLIKDLPDEVRERWETFCTNSLGETNKRNTVDLAFSDYQMQQMTSNFIDQFGFNDEKFADQDDIGNVSFDRVSDINFTLNTNESGNIALFEACCKERIQQFDDGGSDEEDIWEEKHIAFTPESQRRSSSGSTDSEESTDSEEEDGAKQDLFESSSANTEDKMEVDLNEPPTWSANFDVPMETTHGAPLDSVGSDVWSTEEPMPTKETGWASFSEFTSSLSTKESLRSNSPVEMETSTESVDPLTPGAAALATQPEAPGSMAMEASSDGEEDAESTDKVTETVMNGGMKETLSLTVDAKTETAVFKSEEEKLSTSQDAACKDAEETPEPAEAKCTAPLTPSSSPEQRTDQPSMPSDPSVNGPV | binds |
| protein phosphatase-6 catalytic domain (PP6C) (enzyme, UniProt Q9CQR6 1-305) MAPLDLDKYVEIARQCKYLPENDLKRLCDYVCDLLLEESNVQPVSTPVTVCGDIHGQFYDLCELFRTGGQVPDTNYIFMGDFVDRGYYSLETFTYLLALKAKWPDRITLLRGNHESRQITQVYGFYDECQTKYGNANAWRYCTKVFDMLTVAALIDEQILCVHGGLSPDIKTLDQIRTIERNQEIPHKGAFCDLVWSDPEDVDTWAISPRGAGWLFGAKVTNEFVHINNLKLICRAHQLVHEGYKFMFDEKLVTVWSAPNYCYRCGNIASIMVFKDVNTREPKLFRAVPDSERVIPPRTTTPYFL | binds |
